Reference: patent publication US11819552B2, “Antibody-drug conjugates targeting uPARAP” (RIGSHOSPITALET, priority 2016, dated 2023)
Some of these results come from one statement about several compounds together.

System: U937 xenograft tumour
Assay: Subcutaneous uPARAP-positive U937 xenograft tumour model, treatment by s.c. injection
Type: in vivo, CB17 SCID mice
Conditions: 3 mg/kg mAb component, 4 doses every 4 days
Method: All animal experiments were performed under legal approval from The Danish Veterinary and Food Administration. All reagents and cell lines used for animal experiments were tested negative for the presence of murine viruses, bacteria, mycoplasma and fungi. Animals received standard of care, and were sacrificed upon any of the following signs: loss of more than 10% of body weight, visible distress or illness, compromised food—or water intake or defecation, signs of severe inflammation in the vicinity of tumours, or tumour growth which exceeded a volume of 1000 mm^3 or compromised the free movement of the animals. Tumour growth was measured using electronic calipers, and tumour volumes were calculated using the formula Volume=(LxW^2)/2, with L being the longest dimension of the tumour, and W being the width in the perpendicular dimension.
For tumour establishment, mice were shaved at the flank, and received a subcutaneous injection of 1×10^6 U937 cells, and then closely monitored in order to observe the development of solid tumours. […] All treatments were given as a total of 4 subcutaneous doses of 3 mg/kg mAb component in the tumour area, at 4 days intervals. Injections were performed under brief isoflurane anesthesia to avoid risks for the animal handler. During treatment, the tumours were evaluated every two days, until reaching a point of sacrifice. […]

B1: mAb 2h9: mouse monoclonal IgG1k anti-uPARAP antibody clone 2.h.9: F12, produced by hybridoma cell culture (protein)
light: DIQMTQSPASQSASLGESVTITCLASQTIGTWLAWYQQKPGKSPQLLIYAATTLTDGVPSRFSGAGSGTKFSLKISSLQAEDFASYFCQEFFSTPFTFGSGTKLELKRADAAPTVSIFPPSSEQLTSGGASVVCFLNNFYPKDINVKWKIDGGERQNGVLNSWTDQDSKDSTYSMSSTLTLTKDEYERHNSYTCEATHKTSTSPIVKSFNRNEC
heavy: QVQLQQPGTELVRPGLSVKLSCKASGYTFTSYWMNWVKQRPGQGLEWIGMIHPSNDEKRINQKFKDKATLTVDKFSSTVYMQVSSPTSEDSAVYYCARGGGDYVGDYALDFWGQGTSVTVSSAKTTPPSVYPLAPGSAAQTNSMVTLGCLVKGYFPEPVTVTWNSGSLSSGVHTFPAVLQSDLYTLSSSVTVPSSTWPSETVTCNVAHPASSTKVDKKIVPRDCGCKPCICTVPEVSSVFIFPPKPKDVLTITLTPKVTCVVVDISKDDPEVQFSWFVDDVEVHTAQTQPREEQFNSTFRSVSELPIMHQDWLNGKEFKCRVNSAAFPAPIEKTISKTKGRPKAPQVYTIPPPKEQMAKDKVSLTCMITDFFPEDITVEWQWNGQPAENYKNTQPIMDTDGSYFIYSKLNVQKSNWEAGNTFTCSVLHEGLHNHHTEKSLSHSPGK
B1 was tested, and the “Time to point of sacrifice after starting treatment” value was 10 to 12 days.
